No constants are given. Whether binding was seen depends on the method and setting. Binding seen in cells or lysates may run through a third protein. Some entries that bind do so weakly or less than the wild type. One block for each molecule: values may come before it.
Key:
[1] = target: PNKP, endogenous, mouse cortex (mouse (endogenous in C57BL/6 cortex)) (UniProt Q9JLV6); assay: co-IP; endogenous HTT, TFAM, POLRMT or PNKP immunoprecipitated (MAB2170; ab176558; GTX105137; NBP1-87257) from mitochondrial extracts of wildtype C57BL/6 mouse cortex; mitochondria treated with trypsin, extracts treated with benzonase; western blot
[2] = target: T1, TFAM, endogenous, mouse cortex (mouse (endogenous in C57BL/6 cortex)) (UniProt P40630); assay: as above
T1 sequence: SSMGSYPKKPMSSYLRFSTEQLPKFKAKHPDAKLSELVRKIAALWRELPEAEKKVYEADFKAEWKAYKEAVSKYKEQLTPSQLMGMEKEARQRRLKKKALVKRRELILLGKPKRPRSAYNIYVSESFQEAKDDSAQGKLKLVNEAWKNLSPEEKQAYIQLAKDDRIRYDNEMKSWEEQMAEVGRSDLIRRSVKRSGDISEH

The chains behind the UniProt entries cited, without tags or fusion partners. Residues count along the entry.
UniProt Q9JLV6: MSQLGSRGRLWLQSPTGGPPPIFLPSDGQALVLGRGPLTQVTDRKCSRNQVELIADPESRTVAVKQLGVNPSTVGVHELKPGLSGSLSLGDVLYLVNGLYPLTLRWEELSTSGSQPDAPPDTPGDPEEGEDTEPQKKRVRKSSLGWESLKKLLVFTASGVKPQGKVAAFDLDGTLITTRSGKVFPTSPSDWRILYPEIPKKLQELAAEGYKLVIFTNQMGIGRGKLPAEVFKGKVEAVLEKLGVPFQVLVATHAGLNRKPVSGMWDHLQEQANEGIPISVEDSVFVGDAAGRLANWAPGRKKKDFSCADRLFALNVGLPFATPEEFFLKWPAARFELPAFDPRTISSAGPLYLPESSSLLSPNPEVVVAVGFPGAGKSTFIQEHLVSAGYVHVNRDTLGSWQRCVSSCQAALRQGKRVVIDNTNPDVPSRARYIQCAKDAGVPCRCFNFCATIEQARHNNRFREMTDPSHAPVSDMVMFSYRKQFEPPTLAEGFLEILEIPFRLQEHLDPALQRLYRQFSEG
UniProt Q8BKF1, residues 42-1207: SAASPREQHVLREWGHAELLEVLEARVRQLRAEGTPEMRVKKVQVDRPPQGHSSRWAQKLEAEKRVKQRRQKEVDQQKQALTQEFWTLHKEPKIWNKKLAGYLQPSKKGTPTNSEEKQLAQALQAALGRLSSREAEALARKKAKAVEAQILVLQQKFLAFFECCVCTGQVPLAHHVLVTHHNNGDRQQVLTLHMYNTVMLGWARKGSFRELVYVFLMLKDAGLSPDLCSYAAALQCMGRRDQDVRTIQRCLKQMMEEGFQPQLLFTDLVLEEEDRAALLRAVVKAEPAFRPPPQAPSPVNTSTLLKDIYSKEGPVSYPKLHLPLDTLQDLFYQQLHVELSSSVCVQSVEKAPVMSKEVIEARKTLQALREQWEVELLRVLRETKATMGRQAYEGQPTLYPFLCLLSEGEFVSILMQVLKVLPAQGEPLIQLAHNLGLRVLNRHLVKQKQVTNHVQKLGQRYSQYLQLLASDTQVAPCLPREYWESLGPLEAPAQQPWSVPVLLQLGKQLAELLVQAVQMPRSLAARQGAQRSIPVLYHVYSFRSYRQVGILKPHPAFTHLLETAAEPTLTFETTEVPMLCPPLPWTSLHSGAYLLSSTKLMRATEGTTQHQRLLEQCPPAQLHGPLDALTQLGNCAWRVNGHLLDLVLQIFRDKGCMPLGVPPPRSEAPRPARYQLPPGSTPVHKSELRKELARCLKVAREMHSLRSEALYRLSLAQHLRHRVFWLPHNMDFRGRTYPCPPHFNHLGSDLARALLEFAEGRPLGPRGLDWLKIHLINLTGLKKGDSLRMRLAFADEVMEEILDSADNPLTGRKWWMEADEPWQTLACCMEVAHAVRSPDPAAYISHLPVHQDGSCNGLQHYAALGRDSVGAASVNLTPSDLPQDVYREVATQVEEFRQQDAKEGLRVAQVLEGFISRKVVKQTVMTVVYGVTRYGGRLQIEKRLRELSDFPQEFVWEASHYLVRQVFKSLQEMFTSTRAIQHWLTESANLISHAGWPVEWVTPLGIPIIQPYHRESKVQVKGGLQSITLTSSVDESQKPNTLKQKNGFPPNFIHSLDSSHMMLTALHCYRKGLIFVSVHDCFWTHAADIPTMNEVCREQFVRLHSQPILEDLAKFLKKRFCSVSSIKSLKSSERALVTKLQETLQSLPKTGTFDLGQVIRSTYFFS
UniProt O00411, residues 42-1230: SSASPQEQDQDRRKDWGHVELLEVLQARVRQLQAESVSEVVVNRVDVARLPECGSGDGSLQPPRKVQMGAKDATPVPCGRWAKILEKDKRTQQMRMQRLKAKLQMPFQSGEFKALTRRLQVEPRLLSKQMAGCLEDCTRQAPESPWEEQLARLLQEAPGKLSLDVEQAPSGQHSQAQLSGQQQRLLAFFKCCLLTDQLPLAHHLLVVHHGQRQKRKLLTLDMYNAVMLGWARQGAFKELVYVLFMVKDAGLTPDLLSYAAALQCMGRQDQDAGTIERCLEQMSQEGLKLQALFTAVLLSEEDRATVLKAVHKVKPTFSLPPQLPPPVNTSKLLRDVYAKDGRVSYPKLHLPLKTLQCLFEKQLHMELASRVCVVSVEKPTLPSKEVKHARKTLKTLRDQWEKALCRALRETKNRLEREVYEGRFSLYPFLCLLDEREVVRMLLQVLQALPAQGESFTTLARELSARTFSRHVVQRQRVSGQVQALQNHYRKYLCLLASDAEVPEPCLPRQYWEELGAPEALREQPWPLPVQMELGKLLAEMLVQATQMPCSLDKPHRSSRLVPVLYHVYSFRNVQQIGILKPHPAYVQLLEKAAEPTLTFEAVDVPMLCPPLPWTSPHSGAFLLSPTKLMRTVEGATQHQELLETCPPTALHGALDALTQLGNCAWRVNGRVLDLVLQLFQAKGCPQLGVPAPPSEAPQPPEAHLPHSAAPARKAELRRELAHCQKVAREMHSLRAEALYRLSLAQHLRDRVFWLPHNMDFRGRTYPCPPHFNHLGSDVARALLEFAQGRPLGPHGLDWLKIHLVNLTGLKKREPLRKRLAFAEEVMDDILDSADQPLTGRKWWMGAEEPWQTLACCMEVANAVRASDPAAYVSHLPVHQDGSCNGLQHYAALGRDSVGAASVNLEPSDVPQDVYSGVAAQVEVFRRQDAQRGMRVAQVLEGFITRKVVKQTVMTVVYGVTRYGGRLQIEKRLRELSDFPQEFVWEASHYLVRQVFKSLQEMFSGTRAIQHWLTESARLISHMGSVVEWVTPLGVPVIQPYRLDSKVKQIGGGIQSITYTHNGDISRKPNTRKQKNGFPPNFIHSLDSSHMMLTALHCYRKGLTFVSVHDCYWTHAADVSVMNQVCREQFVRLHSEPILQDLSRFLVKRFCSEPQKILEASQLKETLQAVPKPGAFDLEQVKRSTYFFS
UniProt P54098: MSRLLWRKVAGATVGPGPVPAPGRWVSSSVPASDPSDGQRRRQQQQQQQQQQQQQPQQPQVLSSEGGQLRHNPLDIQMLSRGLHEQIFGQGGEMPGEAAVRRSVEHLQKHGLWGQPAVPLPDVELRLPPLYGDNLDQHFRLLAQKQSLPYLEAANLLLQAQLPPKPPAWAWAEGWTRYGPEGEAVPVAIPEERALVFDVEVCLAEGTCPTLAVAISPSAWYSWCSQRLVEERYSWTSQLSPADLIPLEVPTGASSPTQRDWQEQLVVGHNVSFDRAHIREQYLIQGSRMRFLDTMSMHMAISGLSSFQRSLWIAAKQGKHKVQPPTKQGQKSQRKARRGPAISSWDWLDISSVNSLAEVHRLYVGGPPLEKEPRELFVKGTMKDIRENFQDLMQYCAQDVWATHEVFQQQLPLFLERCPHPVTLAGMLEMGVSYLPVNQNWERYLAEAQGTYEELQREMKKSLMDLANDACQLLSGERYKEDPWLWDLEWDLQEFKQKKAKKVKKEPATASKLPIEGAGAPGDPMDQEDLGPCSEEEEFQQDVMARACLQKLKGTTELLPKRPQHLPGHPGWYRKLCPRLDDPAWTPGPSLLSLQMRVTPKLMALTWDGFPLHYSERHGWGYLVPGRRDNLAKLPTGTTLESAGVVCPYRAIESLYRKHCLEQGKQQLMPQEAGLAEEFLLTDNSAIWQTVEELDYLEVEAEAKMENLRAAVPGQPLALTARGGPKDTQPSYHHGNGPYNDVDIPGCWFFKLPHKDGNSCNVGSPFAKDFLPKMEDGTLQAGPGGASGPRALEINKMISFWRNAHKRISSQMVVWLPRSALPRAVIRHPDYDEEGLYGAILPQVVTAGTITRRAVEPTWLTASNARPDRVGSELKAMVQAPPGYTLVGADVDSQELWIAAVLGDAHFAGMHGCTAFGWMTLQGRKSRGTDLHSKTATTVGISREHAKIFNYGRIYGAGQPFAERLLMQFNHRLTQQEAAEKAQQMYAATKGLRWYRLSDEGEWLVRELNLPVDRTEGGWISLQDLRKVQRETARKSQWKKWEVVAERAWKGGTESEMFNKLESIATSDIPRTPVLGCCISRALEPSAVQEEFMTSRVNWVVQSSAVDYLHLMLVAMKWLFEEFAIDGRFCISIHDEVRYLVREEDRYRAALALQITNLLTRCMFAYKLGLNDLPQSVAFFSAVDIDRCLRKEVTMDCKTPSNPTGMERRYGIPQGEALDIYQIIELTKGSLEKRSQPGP
UniProt F8VPZ5: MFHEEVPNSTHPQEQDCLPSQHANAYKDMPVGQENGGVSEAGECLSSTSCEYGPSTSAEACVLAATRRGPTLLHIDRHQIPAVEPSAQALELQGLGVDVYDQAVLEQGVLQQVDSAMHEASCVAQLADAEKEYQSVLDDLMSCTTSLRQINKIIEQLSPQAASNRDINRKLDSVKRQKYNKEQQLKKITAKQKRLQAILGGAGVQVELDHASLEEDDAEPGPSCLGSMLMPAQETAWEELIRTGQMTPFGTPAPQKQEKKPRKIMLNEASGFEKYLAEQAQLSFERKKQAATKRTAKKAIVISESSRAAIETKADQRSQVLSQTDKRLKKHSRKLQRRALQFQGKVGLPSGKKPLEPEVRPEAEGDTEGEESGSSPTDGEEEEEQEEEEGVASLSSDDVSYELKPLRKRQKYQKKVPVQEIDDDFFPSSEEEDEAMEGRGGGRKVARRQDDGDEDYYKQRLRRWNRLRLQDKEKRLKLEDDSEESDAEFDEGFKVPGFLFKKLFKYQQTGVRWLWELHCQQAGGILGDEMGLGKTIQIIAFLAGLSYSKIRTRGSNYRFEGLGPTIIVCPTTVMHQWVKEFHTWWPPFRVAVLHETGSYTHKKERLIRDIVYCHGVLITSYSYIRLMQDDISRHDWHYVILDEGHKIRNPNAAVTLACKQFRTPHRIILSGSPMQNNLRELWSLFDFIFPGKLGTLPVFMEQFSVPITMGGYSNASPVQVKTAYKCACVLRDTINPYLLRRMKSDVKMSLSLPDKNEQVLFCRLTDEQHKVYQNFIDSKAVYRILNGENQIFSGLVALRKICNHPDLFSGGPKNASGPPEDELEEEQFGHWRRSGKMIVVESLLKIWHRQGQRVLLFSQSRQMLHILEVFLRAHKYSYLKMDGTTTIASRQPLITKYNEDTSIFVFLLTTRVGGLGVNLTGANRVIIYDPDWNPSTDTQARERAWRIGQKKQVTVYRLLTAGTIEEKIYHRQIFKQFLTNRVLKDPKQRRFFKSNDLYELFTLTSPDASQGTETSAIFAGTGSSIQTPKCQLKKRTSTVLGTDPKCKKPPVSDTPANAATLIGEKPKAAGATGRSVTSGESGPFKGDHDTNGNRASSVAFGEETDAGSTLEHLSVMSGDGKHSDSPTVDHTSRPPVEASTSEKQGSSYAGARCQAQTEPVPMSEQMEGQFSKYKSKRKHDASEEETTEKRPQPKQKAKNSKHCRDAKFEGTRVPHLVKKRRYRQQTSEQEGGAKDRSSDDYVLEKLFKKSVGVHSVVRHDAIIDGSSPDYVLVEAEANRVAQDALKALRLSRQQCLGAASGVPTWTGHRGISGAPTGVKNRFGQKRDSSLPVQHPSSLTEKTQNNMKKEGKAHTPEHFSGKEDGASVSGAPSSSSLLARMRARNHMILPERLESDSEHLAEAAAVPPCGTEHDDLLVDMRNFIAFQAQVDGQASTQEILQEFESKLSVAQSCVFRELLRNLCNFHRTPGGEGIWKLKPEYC
UniProt Q15388: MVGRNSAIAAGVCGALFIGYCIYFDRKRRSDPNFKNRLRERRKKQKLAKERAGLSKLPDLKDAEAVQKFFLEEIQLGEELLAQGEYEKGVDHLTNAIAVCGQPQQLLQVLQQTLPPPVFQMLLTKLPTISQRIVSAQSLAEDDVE
UniProt Q9DCC8: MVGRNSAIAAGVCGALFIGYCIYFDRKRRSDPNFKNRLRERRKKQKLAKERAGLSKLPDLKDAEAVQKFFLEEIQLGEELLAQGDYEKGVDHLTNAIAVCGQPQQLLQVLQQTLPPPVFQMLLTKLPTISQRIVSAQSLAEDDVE

[3] = target: Huntingtin (HTT), endogenous, mouse cortex (mouse (endogenous in C57BL/6 cortex)) (UniProt P42859); assay: as above
[4] = target: Huntingtin (HTT), endogenous wild-type (human (endogenous in SH-SY5Y)) (UniProt P42858); assay: co-IP; endogenous HTT immunoprecipitated with anti-HTT mouse monoclonal Ab (MAB2170) from mitochondrial extracts of SH-SY5Y cells; mitochondria treated with trypsin, extracts treated with benzonase; washes with TBS (150 mM KCl), 1 mM EDTA, 1% Triton X-100, 10% glycerol; western blot
[5] = target: T2, mitochondrial transcription factor TFAM, endogenous (human (endogenous in SH-SY5Y)) (UniProt Q00059); assay: proximity ligation; Duolink PLA on fixed, permeabilised SH-SY5Y cells (control cells and cells overexpressing wtHTT-Q19), without and with glucose oxidase (300 ng/mL, 30 min); mitochondria stained with MitoTracker Red; signals increased after glucose oxidase (HTT-TFAM 3 to 4-fold)
T2 sequence: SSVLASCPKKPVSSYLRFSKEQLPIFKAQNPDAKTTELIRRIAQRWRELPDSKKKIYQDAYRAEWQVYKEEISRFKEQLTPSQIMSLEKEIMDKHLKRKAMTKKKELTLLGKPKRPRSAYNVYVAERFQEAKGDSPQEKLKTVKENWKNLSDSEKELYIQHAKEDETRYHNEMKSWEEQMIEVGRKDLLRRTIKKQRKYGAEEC

[6] = target: Huntingtin (HTT), endogenous wild-type (human (endogenous in SH-SY5Y)) (UniProt P42858); assay: as above
[7] = target: mitochondrial RNA polymerase (POLRMT), endogenous, mouse cortex (mouse (endogenous in C57BL/6 cortex)) (UniProt Q8BKF1); assay: co-IP; endogenous HTT, TFAM, POLRMT or PNKP immunoprecipitated (MAB2170; ab176558; GTX105137; NBP1-87257) from mitochondrial extracts of wildtype C57BL/6 mouse cortex; mitochondria treated with trypsin, extracts treated with benzonase; western blot
[8] = target: mitochondrial RNA polymerase (POLRMT), endogenous (human (endogenous in SH-SY5Y)) (UniProt O00411); assay: proximity ligation; Duolink PLA on fixed, permeabilised SH-SY5Y cells (control cells and cells overexpressing wtHTT-Q19), without and with glucose oxidase (300 ng/mL, 30 min); mitochondria stained with MitoTracker Red; signals increased after glucose oxidase (HTT-TFAM 3 to 4-fold)
[9] = target: Huntingtin (wtHTT), endogenous, post-mortem human brain (human (endogenous in post-mortem brain)) (UniProt P42858); assay: proximity ligation; PLA on post-mortem human brain sections with anti-POLRMT or anti-POLGA (rabbit) and anti-HTT (goat) Abs; mitochondria stained with anti-MT-Co1
[10] = target: Huntingtin (HTT), endogenous wild-type (human (endogenous in SH-SY5Y)) (UniProt P42858); assay: proximity ligation; Duolink PLA on fixed, permeabilised SH-SY5Y cells (control cells and cells overexpressing wtHTT-Q19), without and with glucose oxidase (300 ng/mL, 30 min); mitochondria stained with MitoTracker Red; signals increased after glucose oxidase (HTT-TFAM 3 to 4-fold); remark: listed apart in the source

binding [1]: binds | binding [2]: binds | binding [3]: binds
Molecule: mitochondrial RNA polymerase (POLRMT), endogenous, mouse cortex (from UniProt Q8BKF1 42-1207)

binding [4]: binds | binding [5]: binds | binding [6]: binds
Molecule: polynucleotide-kinase-3'-phosphatase (PNKP), endogenous (from UniProt Q96T60 1-521)

binding [7]: binds | binding [1]: binds | binding [2]: binds
Molecule: Huntingtin (HTT), endogenous, mouse cortex (from UniProt P42859 1-3119)

binding [4]: binds | binding [8]: binds
Molecule: Cockayne syndrome protein B (CSB), endogenous (from UniProt Q03468 1-1493)

binding [4]: binds | binding [6]: binds
Molecule: mitochondrial RNA polymerase (POLRMT), endogenous (from UniProt O00411 42-1230)

binding [4]: binds
Molecule: POLGA (catalytic subunit of mitochondria-specific DNA polymerase gamma), endogenous (from UniProt P54098 1-1239)

binding [7]: binds | binding [2]: binds | binding [3]: binds
Molecule: PNKP, endogenous, mouse cortex (from UniProt Q9JLV6 1-522)

binding [7]: binds | binding [1]: binds | binding [2]: binds | binding [3]: binds
Molecule: Cockayne syndrome protein B (CSB), endogenous, mouse cortex (from UniProt F8VPZ5 1-1481)

binding [4]: no binding
Molecule: TOM20 (an outer mitochondrial membrane protein), endogenous (from UniProt Q15388 1-145)

Molecule: mtDNA polymerase gamma (POLGA), endogenous, post-mortem human brain (from UniProt P54098 1-1239)
binding [9]: binds

binding [7]: no binding | binding [1]: no binding | binding [2]: no binding | binding [3]: no binding
Molecule: TOM20, endogenous, mouse cortex (from UniProt Q9DCC8 1-145)

binding [9]: binds
Molecule: mitochondrial RNA polymerase (POLRMT), endogenous, post-mortem human brain (from UniProt O00411 42-1230)

binding [4]: binds | binding [10]: binds
B1: mitochondrial transcription factor TFAM, endogenous (protein, UniProt Q00059 43-246)
chain: T2 sequence

binding [7]: binds | binding [1]: binds | binding [2]: binds | binding [3]: binds
B2: POLGA, endogenous, mouse cortex (protein, UniProt P54099 1-1218)
chain: MSRLLWKKVAGAKVASGPVPATARWVASSVLDPVPSDGRPPSQMPSSENGQLRLNPLLIQMLSRGLHEQIFGCGGEMPDEAAVQRSVEHLQKHGLWGQPATPLPDVELRLPRLFGGNLDQHFRLLAQKQSLPYLEAAASLLEAQLPPEPKSWAWAEGWTRYGPEGEAEPVAIPEERALVFDVEVCLAEGTCPTLAVAISPSAWYSWCSRRLVEERYSWTSQLSPADLIPLGGSTSASSSTKQDGQEQLVVGHNVSFDRAHIREQYLIQDSRMRFLDTMSMHMAISGLSSFQRSLWMGAKQGKHKNPAAHKARAEVPEESQWSSESSSWDWMDISSANNLADVHNLYVGGPPLEKEPRELFVKGSMRDIRENFQDLMQYCARDVWATFEVFQQQLPLFLERCPHPVTLAGMLEMGVSYLPVNQNWERYLTEAQNTYEELQREMKKSLMDLANDACQLLSGERYKEDPWLWDLEWDLQEFKQKKAKKVKKPASASKLPIEGAGPFGDPMDQEDPGPPSEEEELQRSVTAHNRLQQLRSTTDLLPKRPQHLPGHPGWYRQLCPRLDDPAWAPGPSLLSLQMRVTPKLMALTWDGFPLHYSDSHGWGYLVPGRRDNLTEPPVSPTVESAAVTCPYRAIESLYRKHCLEQGKQQLEPQEVDLAEEFLLTDNSAMWQTVEELGCLDVEAEAKMENSGLSQPLVLPAACAPKSSQPTYHHGNGPYNDVNIPGCWFFKLPHKDGNNYNVGSPFAKDFLPKMEDGTLQAGPGGASGPRALEINKMISFWRNAHKRISSQMVVWLPRSALPRVVTRHPAFDEEGHYGAILPQVVTAGTITRRAVEPTWLTASNARPDRVGSELKAMVQAPPGYVLVGADVDSQELWIAAVLGDAHFAGMHGCTAFGWMTLQGRKSRGTDLHSKTAATVGISREHAKIFNYGRIYGAGQSFAERLLMQFNHRLTRQEAAEKAQQMYAVTKGLRRYRLSADGEWLVKQLNLPVDRTEDGWVSLQDLRMIRREASRKSRWKKWEVAAERAWTGGTESEMFNKLESIAMSDTPRTPVLGCCISRALEPSVVQGEFITSRVNWVVQSSAVDYLHLMLVAMKWLFEEFAIDGRFCISIHDEVRYLVREEDRYRAALALQITNLLTRCMFAYKLGLNDLPQSVAFFSAVDIDQCLRKEVTMDCKTPSNPTGMERRYGIPQGEALDIYQIIELTKGSLEKRSQPGP

binding [7]: binds | binding [1]: binds | binding [3]: binds
B3: TFAM, endogenous, mouse cortex (protein, UniProt P40630 43-243)
chain: T1 sequence
